No constants are given. Whether binding was seen depends on the method and setting. In cells and extracts the contact can be indirect. Some entries that bind do so weakly or less than the wild type. Tags and fused reporters may be left off the sequences shown.

Assay [1] has as its target T1, Frey regulator of sperm-oocyte fusion 1 with C-terminal 3xFLAG tag (Frey1-3xFLAG), wild type (murine) (UniProt Q8CF31).
T1 sequence: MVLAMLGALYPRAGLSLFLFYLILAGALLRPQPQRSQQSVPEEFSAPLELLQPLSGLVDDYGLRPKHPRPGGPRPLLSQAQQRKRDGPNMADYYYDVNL
Put plainly: co-IP; anti-FLAG M2 and Protein G agarose from 0.5% CHAPSO lysates (1 mg in 500 µl, overnight, 4 °C) of transiently transfected HEK293T cells; four washes with CHAPSO buffer; eluates blotted; co-precipitated SPPL2c divided by the precipitated Frey1 or PLN variant and normalised to wild-type Frey1.

Assay [2] addresses T2, Signal Peptide Peptidase-like 2c, C-terminally myc-tagged (SPPL2c-myc) (murine) (UniProt A2A6C4).
T2 sequence: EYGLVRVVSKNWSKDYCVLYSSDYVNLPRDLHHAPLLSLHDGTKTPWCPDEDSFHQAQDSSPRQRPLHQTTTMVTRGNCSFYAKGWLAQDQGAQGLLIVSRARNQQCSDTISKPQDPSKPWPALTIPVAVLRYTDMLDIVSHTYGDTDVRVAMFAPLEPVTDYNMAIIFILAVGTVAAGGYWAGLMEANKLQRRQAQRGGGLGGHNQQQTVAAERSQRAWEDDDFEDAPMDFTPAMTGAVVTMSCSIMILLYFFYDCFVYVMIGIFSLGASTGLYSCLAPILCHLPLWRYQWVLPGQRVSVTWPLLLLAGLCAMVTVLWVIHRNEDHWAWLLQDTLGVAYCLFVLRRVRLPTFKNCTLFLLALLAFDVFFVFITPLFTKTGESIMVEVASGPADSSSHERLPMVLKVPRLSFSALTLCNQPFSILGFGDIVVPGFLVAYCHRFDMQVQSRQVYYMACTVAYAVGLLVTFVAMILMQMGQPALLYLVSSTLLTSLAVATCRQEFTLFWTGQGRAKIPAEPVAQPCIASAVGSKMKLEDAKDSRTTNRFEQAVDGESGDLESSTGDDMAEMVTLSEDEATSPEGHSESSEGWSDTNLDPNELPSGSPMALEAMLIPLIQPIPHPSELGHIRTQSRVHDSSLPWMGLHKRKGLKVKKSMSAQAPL
Put plainly: co-IP; HA-RAMP4-2 or Frey1-3xFLAG co-precipitated with C-terminally myc-tagged murine SPPL2c (Suppl. Figure 1B); precipitating antibody not told in the text shown.

The target of assay [3] is T3, Frey1-3xFLAG R30K (murine) (UniProt Q8CF31).
T3 sequence: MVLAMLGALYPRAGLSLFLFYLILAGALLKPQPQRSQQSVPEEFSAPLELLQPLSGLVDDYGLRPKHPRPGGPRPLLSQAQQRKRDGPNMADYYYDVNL
Put plainly: co-IP; anti-FLAG M2 and Protein G agarose from 0.5% CHAPSO lysates (1 mg in 500 µl, overnight, 4 °C) of transiently transfected HEK293T cells; four washes with CHAPSO buffer; eluates blotted; co-precipitated SPPL2c divided by the precipitated Frey1 or PLN variant and normalised to wild-type Frey1.

Assay [4] concerns the target T1, Frey regulator of sperm-oocyte fusion 1 with C-terminal 3xFLAG tag (Frey1-3xFLAG), wild type (murine). Put plainly: co-IP; competitive co-immunoprecipitation pulling on Frey1-3xFLAG or its TMD mutant from transiently transfected HEK cells, with or without co-expressed HA-HO-1 as model substrate; SPPL2c blotted.

B1: HA-tagged heme oxygenase 1 (HA-HO-1) (protein, UniProt P14901 1-289)
chain: MERPQPDSMPQDLSEALKEATKEVHIQAENAEFMKNFQKGQVSREGFKLVMASLYHIYTALEEEIERNKQNPVYAPLYFPEELHRRAALEQDMAFWYGPHWQEIIPCTPATQHYVKRLHEVGRTHPELLVAHAYTRYLGDLSGGQVLKKIAQKAMALPSSGEGLAFFTFPNIDSPTKFKQLYRARMNTLEMTPEVKHRVTEEAKTAFLLNIELFEELQVMLTEEHKDQSPSQMASLRQRPASLVQDTAPAETPRGKPQISTSSSQTPLLQWVLTLSFLLATVAVGIYAM
With B1, in assay [1], the binding result was “no binding”.

B2: Frey regulator of sperm-oocyte fusion 1 with C-terminal 3xFLAG tag (Frey1-3xFLAG), wild type (protein, UniProt Q8CF31 1-99)
chain: MVLAMLGALYPRAGLSLFLFYLILAGALLRPQPQRSQQSVPEEFSAPLELLQPLSGLVDDYGLRPKHPRPGGPRPLLSQAQQRKRDGPNMADYYYDVNL
Regarding B2, in assay [2], the binding result is reported as “binds”.

B3: Signal Peptide Peptidase-like 2c, C-terminally myc-tagged (SPPL2c-myc) (enzyme, UniProt A2A6C4 29-690)
chain: EYGLVRVVSKNWSKDYCVLYSSDYVNLPRDLHHAPLLSLHDGTKTPWCPDEDSFHQAQDSSPRQRPLHQTTTMVTRGNCSFYAKGWLAQDQGAQGLLIVSRARNQQCSDTISKPQDPSKPWPALTIPVAVLRYTDMLDIVSHTYGDTDVRVAMFAPLEPVTDYNMAIIFILAVGTVAAGGYWAGLMEANKLQRRQAQRGGGLGGHNQQQTVAAERSQRAWEDDDFEDAPMDFTPAMTGAVVTMSCSIMILLYFFYDCFVYVMIGIFSLGASTGLYSCLAPILCHLPLWRYQWVLPGQRVSVTWPLLLLAGLCAMVTVLWVIHRNEDHWAWLLQDTLGVAYCLFVLRRVRLPTFKNCTLFLLALLAFDVFFVFITPLFTKTGESIMVEVASGPADSSSHERLPMVLKVPRLSFSALTLCNQPFSILGFGDIVVPGFLVAYCHRFDMQVQSRQVYYMACTVAYAVGLLVTFVAMILMQMGQPALLYLVSSTLLTSLAVATCRQEFTLFWTGQGRAKIPAEPVAQPCIASAVGSKMKLEDAKDSRTTNRFEQAVDGESGDLESSTGDDMAEMVTLSEDEATSPEGHSESSEGWSDTNLDPNELPSGSPMALEAMLIPLIQPIPHPSELGHIRTQSRVHDSSLPWMGLHKRKGLKVKKSMSAQAPL
On to B3, for which the binding entry in assay [3], in assay [1] and in assay [4] was “binds” in each case.

These data come from PMC10234869.
